Test results as given in patent US20250115953, “Methylcytosine-Selective Deaminases and Uses Thereof” (New England Biolabs, Inc., published 2025).

What was measured:
[1] = tested on: B4 deaminase; assay: activity assay; details: not detected; purified recombinant protein; protein details: immobilized on solid support; label: 5'-FAM; single-stranded DNA; variant of FAM 5mC oligo 1
[2] = tested on: T1, E12 deaminase; assay: activity assay; details: not detected; purified recombinant protein; protein details: immobilized on solid support; label: 5'-FAM; single-stranded DNA; variant of FAM 5mC oligo 1
T1 sequence (limits assumed): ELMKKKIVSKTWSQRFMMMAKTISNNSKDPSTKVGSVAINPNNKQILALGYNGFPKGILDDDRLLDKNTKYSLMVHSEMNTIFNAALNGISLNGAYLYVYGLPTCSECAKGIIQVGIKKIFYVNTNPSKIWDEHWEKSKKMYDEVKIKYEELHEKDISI

[3] = tested on: T2, F12 deaminase; assay: activity assay; details: not detected; purified recombinant protein; protein details: immobilized on solid support; label: 5'-FAM; single-stranded DNA; variant of FAM 5mC oligo 1
T2 sequence (limits assumed): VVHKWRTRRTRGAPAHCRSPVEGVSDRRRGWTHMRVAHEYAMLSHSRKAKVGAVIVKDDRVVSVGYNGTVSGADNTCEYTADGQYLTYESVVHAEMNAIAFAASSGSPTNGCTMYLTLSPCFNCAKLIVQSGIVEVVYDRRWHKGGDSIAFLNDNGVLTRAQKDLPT

[4] = tested on: T3, H2 deaminase; assay: activity assay; details: not detected; purified recombinant protein; protein details: immobilized on solid support; label: 5'-FAM; single-stranded DNA; variant of FAM 5mC oligo 1
T3 sequence (limits assumed): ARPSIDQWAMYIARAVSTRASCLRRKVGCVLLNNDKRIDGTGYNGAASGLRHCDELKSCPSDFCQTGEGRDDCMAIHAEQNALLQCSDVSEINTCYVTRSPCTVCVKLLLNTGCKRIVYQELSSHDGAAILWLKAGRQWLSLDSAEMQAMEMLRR

[5] = tested on: T4, PRW294; assay: activity assay; details: 1 h; purified recombinant protein; label: 5'-FAM; single-stranded DNA; variant of FAM 5mC oligo 1
T4 sequence: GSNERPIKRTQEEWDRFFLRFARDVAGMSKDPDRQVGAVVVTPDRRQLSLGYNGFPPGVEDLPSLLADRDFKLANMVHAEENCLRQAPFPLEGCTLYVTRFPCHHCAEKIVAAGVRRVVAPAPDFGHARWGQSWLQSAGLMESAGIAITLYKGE

[6] = tested on: T5, PRW311; assay: activity assay; details: 1 h; purified recombinant protein; label: 5'-FAM; single-stranded DNA; variant of FAM 5mC oligo 1
T5 sequence: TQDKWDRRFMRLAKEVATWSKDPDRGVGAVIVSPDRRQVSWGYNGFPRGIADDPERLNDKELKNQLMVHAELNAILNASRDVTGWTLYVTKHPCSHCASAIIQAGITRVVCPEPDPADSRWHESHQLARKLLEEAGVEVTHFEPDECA

[7] = tested on: T6, B5 deaminase; assay: binding assay; details: 5mC at one CpG; 42 C 1 h, enzyme:substrate 40:1; C to T linear with methylated fraction; purified recombinant protein; protein details: N-terminal His6 (pET28), E. coli C2566
T6 sequence: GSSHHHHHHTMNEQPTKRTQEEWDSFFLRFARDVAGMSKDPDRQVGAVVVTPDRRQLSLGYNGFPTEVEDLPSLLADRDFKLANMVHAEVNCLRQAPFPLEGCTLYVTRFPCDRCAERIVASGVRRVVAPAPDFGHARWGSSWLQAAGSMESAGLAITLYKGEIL

Sequence	activity on this sequence [1]	activity on this sequence [2]	activity on this sequence [3]	activity on this sequence [4]	activity on this sequence (% deamination) [5]	activity on this sequence (% deamination) [6]	binding result [7]
ATACACCGATGCAGAACTCATGGGCTTACGC [FAM C oligo 4]	not active	not active	not active	not active	< 1	< 1	
GGACACAGGGGTTGCCCAGGCTACAGATCCGGGTTCAGGCCCAGCCGTGGGGACTGTTCACCTCTGAGAGGGCAGCCCTGCCCCGCGGCCCTGGCCCTGCCCTGCACCCGGCTGGGTCTCATCTGACACGC (double strand) [F1/R1 methylated CpG]							binds

For some of these results: A negative result means that nothing was seen under these conditions. For some of these results: Where a protein sequence is shown, tags need not be part of it. For some of these results: The exact form of at least one protein or probe is not confirmed.
